No constants are given. Whether binding was seen depends on the method and setting. Binding seen in cells or lysates may run through a third protein. Some binding calls cover weakened binding; strength is not graded here.

Amino acid sequences for entries named in this document (tags omitted).
UniProt Q9NYA1: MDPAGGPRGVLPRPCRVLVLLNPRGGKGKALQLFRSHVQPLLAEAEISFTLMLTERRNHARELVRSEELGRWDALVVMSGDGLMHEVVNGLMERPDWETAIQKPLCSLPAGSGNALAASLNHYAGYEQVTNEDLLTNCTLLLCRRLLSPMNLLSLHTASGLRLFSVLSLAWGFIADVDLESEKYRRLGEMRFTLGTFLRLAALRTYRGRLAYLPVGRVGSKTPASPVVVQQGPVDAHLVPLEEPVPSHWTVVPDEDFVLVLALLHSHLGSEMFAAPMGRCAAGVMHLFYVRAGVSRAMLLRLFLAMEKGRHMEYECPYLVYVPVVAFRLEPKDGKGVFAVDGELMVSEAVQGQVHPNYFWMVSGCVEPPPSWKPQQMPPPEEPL
UniProt P16220: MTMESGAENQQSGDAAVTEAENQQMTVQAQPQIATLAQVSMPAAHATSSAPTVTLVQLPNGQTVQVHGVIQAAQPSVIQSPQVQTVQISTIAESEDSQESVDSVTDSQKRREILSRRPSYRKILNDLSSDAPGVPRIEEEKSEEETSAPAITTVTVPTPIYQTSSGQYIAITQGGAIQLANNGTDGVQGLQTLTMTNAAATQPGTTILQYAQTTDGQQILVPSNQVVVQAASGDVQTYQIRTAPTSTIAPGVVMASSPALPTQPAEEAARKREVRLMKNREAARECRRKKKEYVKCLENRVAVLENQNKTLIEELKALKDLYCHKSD

Assay [1] concerns the target T1, sphingosine kinase 2 (human (endogenous in HUVEC)) (UniProt Q9NRA0).
T1 sequence: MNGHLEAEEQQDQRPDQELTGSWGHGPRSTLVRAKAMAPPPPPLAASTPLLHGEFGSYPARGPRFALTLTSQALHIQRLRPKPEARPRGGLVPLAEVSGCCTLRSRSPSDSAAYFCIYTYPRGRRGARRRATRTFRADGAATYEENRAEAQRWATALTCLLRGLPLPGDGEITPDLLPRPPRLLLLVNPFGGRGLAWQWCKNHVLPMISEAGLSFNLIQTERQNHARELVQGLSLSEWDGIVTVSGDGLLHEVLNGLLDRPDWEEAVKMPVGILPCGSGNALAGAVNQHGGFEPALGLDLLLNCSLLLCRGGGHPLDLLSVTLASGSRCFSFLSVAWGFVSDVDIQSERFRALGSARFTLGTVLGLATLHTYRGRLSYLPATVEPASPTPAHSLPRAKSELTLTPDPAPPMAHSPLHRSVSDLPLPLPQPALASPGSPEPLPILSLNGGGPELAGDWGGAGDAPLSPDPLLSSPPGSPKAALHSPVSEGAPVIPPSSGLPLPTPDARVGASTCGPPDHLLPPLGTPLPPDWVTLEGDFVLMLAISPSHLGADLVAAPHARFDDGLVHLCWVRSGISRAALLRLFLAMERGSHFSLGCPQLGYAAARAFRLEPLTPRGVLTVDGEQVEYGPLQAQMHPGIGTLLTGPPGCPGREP
Kind of assay: co-IP; HUVEC lysate (500 ug total protein; 50 mM Tris-HCl, 75 mM NaCl, 75 mM KCl, 4 mM MgCl2, 1 % NP-40) incubated with 10 ug rabbit polyclonal anti-SphK-1 or anti-SphK-2 antibody and Protein A+G agarose beads; precipitates blotted for (p-)CREB, SphK-1 or SphK-2; IgG as control.

Assay [2] deals with sphingosine kinase 1 (human (endogenous in HUVEC)) (UniProt Q9NYA1). Described as above.

Turning to “cAMP response element-binding (CREB) protein (from UniProt P16220 1-327)”, the binding result in assay [1] was “binds”; in assay [2], “no binding”.

The record behind these values is PMC3950625.
